Survivor count and T/C data for 17 molecules are collected here from PubChem BioAssay AID316 (DTP/NCI, 2004).

This experiment deals with P1534 leukemia ip, CD2F1 mice, survival T/C. Briefly: NCI In Vivo Anticancer Drug Screen. Data for tumor model P1534 Leukemia (intraperitoneal) in CD2F1 (CDF1) mice. Particulars: higher T/C = longer survival. On the procedure: The antitumor activity of compounds was measured in mice bearing transplantable tumors. Survival or tumor size were measured and the results are expressed as the measurement made in the treated group (T) divided by the measurement made in the vehicle treated control group (C). The tumor model used in this assay is P1534 Leukemia (intraperitoneal) in CD2F1 (CDF1) mice

The mark [1] stands for this setting: T/C endpoint: mean survival time, dose: 150.0 mg/kg/injection, schedule: Q01DX005 (sc), vehicle: steroid suspending solution.
Setting [2] is: T/C endpoint: mean survival time, dose: 300.0 mg/kg/injection, schedule: Q01DX005 (sc), vehicle: steroid suspending solution.
Setting [3] is: T/C endpoint: mean survival time, dose: 62.5 mg/kg/injection, schedule: Q01DX010 (ip), vehicle: saline.
The mark [4] stands for this setting: T/C endpoint: mean survival time, dose: 250.0 mg/kg/injection, schedule: Q01DX010 (ip), vehicle: saline.
[5] abbreviates: T/C endpoint: mean survival time, dose: 200.0 mg/kg/injection, schedule: Q01DX010 (ip), vehicle: saline.

The list is a part of this screen's results and no random one: it gathers tests that were run many times, whatever their T/C, doses with no T/C, and many T/C values between a quarter and a half above the control. Other doses and runs of a compound stand elsewhere. T/C: endpoint of the treated group in % of that of the vehicle group. Some entries give survivors of the animals treated and no T/C: the source holds a T/C of zero for them, seemingly a mark for toxic or unscored doses. Some doses without a T/C left all or most animals alive at the check, yet need not have been tolerated: survival well below the control is almost never listed, so the zero probably covers shortened survival too. Counts of survivors are from the toxicity check (mostly the fifth day) where no day follows; animals may have died later. Schedule codes are those of the source, taken here to give the interval after Q, in days (D) or hours (H), and the number of doses after X. Some entries hold several experiments; the values are given in rising order. For survival time, this PubChem deposit counts one and a half times the control or more as active, and values a quarter to a half above the control carry no call in these data; other NCI protocols may use other cut-offs. Some T/C values carry the count of animals alive at the toxicity check (mostly the fifth day); without a count, all were alive then.

`C[C@]12CCC(=O)C=C1CC[C@@H]1[C@@H]2[C@@H](O)C[C@@]2(C)[C@H]1CC[C@]2(O)C(=O)CO`: the survivor count is given as 10 of 10 (T/C endpoint: mean survival time, dose: 100.0 mg/kg/injection, schedule: Q01DX005 (sc), vehicle: steroid suspending solution); 4 of 10, 5 of 10, 6 of 10, 9 of 10, 10 of 10 under setting [1]; 10 of 10 (T/C endpoint: mean survival time, dose: 200.0 mg/kg/injection, schedule: Q01DX005 (sc), vehicle: steroid suspending solution); 10 of 10 (T/C endpoint: mean survival time, dose: 250.0 mg/kg/injection, schedule: Q01DX005 (sc), vehicle: steroid suspending solution); 0 of 10, 3 of 10, 6 of 10, 10 of 10 under setting [2]. Moreover, the T/C under setting [1] is 92 % of control and the T/C under setting [2] is 86 % of control.
Take `C[C@H]1/C(=C/C(=O)OCCN(C)C)CC[C@H]2[C@H]1C(=O)C[C@H]1C(C)(C)[C@@H](O)CC[C@]21C`: the survivor count is 5 of 6 (T/C endpoint: mean survival time, dose: 2.0 mg/kg/injection, schedule: Q01DX010 (ip), vehicle: saline) and 5 of 6 (T/C endpoint: mean survival time, dose: 16.0 mg/kg/injection, schedule: Q01DX010 (ip), vehicle: saline).
Regarding `c1ccc(CCSc2ncnc3nc[nH]c23)cc1`, the survivor count under setting [3] is listed as 6 of 6 and the survivor count under setting [4] was 6 of 6.
Consider `COc1cc2c3c(c4cc(OC)c(OC)cc4c2cc1OC)CN1CCC[C@H]1C3`, for which the survivor count (T/C endpoint: mean survival time, dose: 15.6 mg/kg/injection, schedule: Q01DX010 (ip), vehicle: saline) is 6 of 6; the survivor count (T/C endpoint: mean survival time, dose: 31.3 mg/kg/injection, schedule: Q01DX010 (ip), vehicle: saline) is on record as 6 of 6; the survivor count under setting [3] was 6 of 6; the survivor count (T/C endpoint: mean survival time, dose: 125.0 mg/kg/injection, schedule: Q01DX010 (ip), vehicle: saline) is given as 6 of 6; the survivor count under setting [4] was 6 of 6.
As to `OCCN1CCC(CCCC2CCN(CCO)CC2)CC1`, the survivor count is recorded as 5 of 6 (T/C endpoint: mean survival time, dose: 25.0 mg/kg/injection, schedule: Q01DX010 (ip), vehicle: saline); 5 of 6 (T/C endpoint: mean survival time, dose: 50.0 mg/kg/injection, schedule: Q01DX010 (ip), vehicle: saline); 6 of 6 (T/C endpoint: mean survival time, dose: 100.0 mg/kg/injection, schedule: Q01DX010 (ip), vehicle: saline); 0 of 6 under setting [5].
As for `CNC(C)C(O)c1ccccc1` (configuration not stated), the survivor count is, setting by setting: (T/C endpoint: mean survival time, dose: 150.0 mg/kg/injection, schedule: Q01DX010 (ip), vehicle: saline) 5 of 6; (T/C endpoint: mean survival time, dose: 300.0 mg/kg/injection, schedule: Q01DX010 (ip), vehicle: saline) 0 of 6.
For the molecule `COCCOC`, the survivor count (T/C endpoint: mean survival time, dose: 1000.0 mg/kg/injection, schedule: Q01DX010 (ip), vehicle: saline) is 6 of 6.
For the molecule `NNC(=O)c1cnccn1`, for the setting “T/C endpoint: mean survival time, dose: 60.0 mg/kg/injection, schedule: Q01DX010 (ip), vehicle: water”, the T/C is 138 % of control. Moreover, the survivor count (T/C endpoint: mean survival time, dose: 100.0 mg/kg/injection, schedule: Q01DX010 (ip), vehicle: water) is on record as 3 of 6; the survivor count (T/C endpoint: mean survival time, dose: 120.0 mg/kg/injection, schedule: Q01DX010 (ip), vehicle: water) is 1 of 6; the survivor count (T/C endpoint: mean survival time, dose: 140.0 mg/kg/injection, schedule: Q01DX010 (ip), vehicle: water) is given as 0 of 6.
As for `O=CC1CO1` (configuration not stated), the survivor count is reported as 6 of 6 (T/C endpoint: mean survival time, dose: 66.0 mg/kg/injection, schedule: Q01DX010 (ip), vehicle: steroid suspending solution) and 6 of 6 (T/C endpoint: mean survival time, dose: 100.0 mg/kg/injection, schedule: Q01DX010 (ip), vehicle: steroid suspending solution).
Turning to `O=CC(NC(=O)N(CCCl)N=O)C(O)C(O)C(O)CO` (configuration not stated), the T/C (T/C endpoint: median survival time, dose: 1.25 mg/kg/injection, schedule: Q01DX005 (ip), vehicle: other) was 132 % of control [4 of 6 alive].
`Clc1[nH]nc2ccccc12`: the survivor count under setting [4] is 6 of 6 and the survivor count (T/C endpoint: mean survival time, dose: 500.0 mg/kg/injection, schedule: Q01DX010 (ip), vehicle: saline) is reported as 6 of 6.
Regarding `CC(/C=N/N=C(N)N)=N\NC(N)=S`, the survivor count (T/C endpoint: mean survival time, dose: 400.0 mg/kg/injection, schedule: Q01DX010 (ip), vehicle: saline) is listed as 3 of 6.
Consider `NC(N)=NCCCC(N)C(=O)NCCCCCCNCCCCCCNC(=O)C(N)CCCN=C(N)N` (configuration not stated), for which the survivor count (T/C endpoint: mean survival time, dose: 40.0 mg/kg/injection, schedule: Q01DX010 (ip), vehicle: saline) is on record as 0 of 6.
In the case of `c1ccc2ncccc2c1`, the survivor count under setting [5] is given as 0 of 6.
For the molecule `Cc1cc(O)c2cc3c(O)c(O)ccc3cc2c1`, the survivor count reads like this: (T/C endpoint: mean survival time, dose: 4.0 mg/kg/injection, schedule: Q01DX010 (ip), vehicle: saline) 5 of 6; (T/C endpoint: mean survival time, dose: 8.0 mg/kg/injection, schedule: Q01DX010 (ip), vehicle: saline) 3 of 6.
`COc1cc(C[C@H]2c3cc(OC)c(OC)cc3CCN2C)c(Oc2cc3c(cc2OC)-c2c(OC)c(OC)cc4c2[C@H](C3)N(C)CC4)cc1OC`: the survivor count runs as follows: (T/C endpoint: mean survival time, dose: 6.25 mg/kg/injection, schedule: Q01DX010 (ip), vehicle: saline) 6 of 6; (T/C endpoint: mean survival time, dose: 12.5 mg/kg/injection, schedule: Q01DX010 (ip), vehicle: saline) 6 of 6.
Regarding `Clc1ncnc2nc[nH]c12`, the T/C was 125 % of control (T/C endpoint: mean survival time, dose: 15.0 mg/kg/injection, schedule: Q01DX010 (ip), vehicle: saline); 125 % of control (T/C endpoint: mean survival time, dose: 30.0 mg/kg/injection, schedule: Q01DX010 (ip), vehicle: saline); 125 % of control (T/C endpoint: mean survival time, dose: 60.0 mg/kg/injection, schedule: Q01DX010 (ip), vehicle: saline).
